Literature values as cited in patent EP2252246B1, “CHEMOPROTECTIVE METHODS AND COMPOSITIONS” (BIONUMERIK PHARMACEUTICALS, INC., priority 2008, dated 2009).

Settings: in vitro; cited from earlier work

| SMILES | direct reaction with paclitaxel |
| --- | --- |
| O=S(=O)([O-])CCSSCCS(=O)(=O)[O-].[Na+].[Na+] [Tavocept, disodium 2,2'-dithio-bis-ethane sulfonate] | does not directly react |
| O=S(=O)(O)CCS [mesna, 2-mercapto ethane sulfonate sodium, reference compound] | does not directly react |
